The list shows a part of the results. These are further read-outs of the screen, such as a control signal, another cell line or another target. No call is given for them. Most of these compounds were active or inconclusive in the main read-out, so they are no random draw. Potencies come from curve fits of mixed quality, noted in brackets.

The experiment in a line: qHTS Assay for Lipid Storage Modulators in Drosophila S3 Cells.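 For cell number change: cells counted by Cell Tracker Red CMTPX staining in the red channel.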 Particulars: BODIPY lipid droplet fluorescence, 18-24 h; for cell number change: measured here: cell count max response, cells fed with added oleic acid. The procedure, abridged:
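Drosophila S3 cells loaded with oleic acid (400 uM, as added) and compounds at several concentrations; lipid droplets imaged by 488-nm laser-scanning cytometry, 500–530 nm intensity and object ratio to cell channel. Percent activity normalized to 20 uM Triacsin C.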
Background: In qHTS, concentration-response curves come from the screen itself.

Where [1] appears, read: measured here: lipid fluorescence (Fed channel) AC50, cells fed with added oleic acid.
The mark [2] stands for this setting: measured here: cell number channel AC50, cells fed with added oleic acid.

Regarding `Cc1c(C(=O)N/N=C/c2ccc(N(C)C)cc2)[nH]c2ccc(Cl)cc12`, the cell number change is -17.2%. Besides, the AC50 (commonly the midpoint of the concentration-response curve, whichever way the signal moves) under setting [1] is 1.3 µM [rising, full curve].

`O=c1cc(N2CCCCC2)c(-c2ccccc2)nn1Cc1c(Cl)cccc1Cl`: the cell number change is -19%. In addition, the AC50 under setting [2] is 0.00517 µM [falling, full curve, poor fit].

Turning to `Cc1cnc(C(=O)Nc2nnc(C(C)C)s2)cn1`, the AC50 under setting [2] is 6.51 µM [falling, single point].

In the case of `CCOc1ccccc1NC(=O)CN(C)S(=O)(=O)c1cnc[nH]1`, the cell number change came out at 20.6%.

As for `COc1ccc(/C=C/C(=O)Nc2cc(C)nn2-c2nc3ccccc3[nH]2)cc1`, the cell number change is -10.7%. Under setting [1], the AC50 was 18.4 µM [falling, single point].

Turning to `COc1cc(/C=C/C(=O)N2c3ccccc3Sc3ccc(C(F)(F)F)cc32)cc(OC)c1OC`, the cell number change was -33.3%. In addition, under setting [2], the AC50 was 2.06 µM [falling, partial curve].

For the compound `CN(C)S(=O)(=O)c1cc(NC(=O)COC(=O)C2COc3ccccc3O2)ccc1Cl` (stereo not drawn), the cell number change amounted to 47.5%. The AC50 under setting [2] was 29.1 µM [rising, single point]. Moreover, the AC50 under setting [1] is 20.6 µM [rising, partial curve].

Regarding `O=C(O)C12CC3CC(C1)CC(n1ncc(NCc4ccccc4)c(Cl)c1=O)(C3)C2`, the AC50 under setting [2] is 0.461 µM [falling, single point].

Regarding `CCc1ccc(NC(=O)c2ccc3nc(N)sc3c2)cc1`, the cell number change was found to be 7.46%. Also, the AC50 under setting [2] was 0.411 µM [rising, full curve, poor fit]. Moreover, the AC50 under setting [1] was 0.92 µM [rising, full curve].

Regarding `Cc1ccc(CNC(=O)Cn2c(=O)oc3ccccc32)o1`, the cell number change turned out to be 39.8%. Further, the AC50 under setting [2] was 18.4 µM [rising, single point].

For `Cc1ccc2cccc(OCC(=O)Nc3ccc(N4CCOCC4)cc3)c2n1`, the AC50 reads like this: under setting [2], 0.366 µM [rising, partial curve]; under setting [1], 1.84 µM [rising, partial curve].

In the case of `N#Cc1cccc(NC(=O)CCC2CCCC2)c1`, the cell number change was -15.6%. Under setting [2], the AC50 is 0.00651 µM [falling, full curve]. In addition, the AC50 under setting [1] is 29.1 µM [falling, single point].

For the compound `NC(=O)NC1CCCc2c1[nH]c1ccc(Cl)cc21` (stereo not drawn), the cell number change is -20.5%. Further, the AC50 under setting [2] is 3.26 µM [falling, single point]. For the same compound, the AC50 under setting [1] was 6.51 µM [falling, single point].

As for `C#CCOCCOCCOCCNc1nc(N2CCN(C(=O)CCCCCCCCCCNC(=O)[C@H](CCCCN)n3cc(C)nn3)CC2)nc(N2CCN(C(=O)CCCCCCCCCCNC(=O)[C@@H]([C@H](C)O)n3cc(C)nn3)CC2)n1`, the cell number change was 1.12%. In addition, under setting [2], the AC50 is 0.13 µM [falling, full curve]. Besides, the AC50 under setting [1] was 0.116 µM [falling, full curve, poor fit].

`Cc1ccc(NC(=S)NC(=O)/C=C/c2ccco2)c(O)c1`: the cell number change was found to be 12.7%. In addition, the AC50 under setting [2] is 1.16 µM [rising, single point]. In addition, the AC50 under setting [1] was 0.731 µM [rising, full curve].

`Cc1ccc(S(=O)(=O)N(C)CC(=O)Nc2nc3ccccc3s2)cc1`: the cell number change is -6.83%. The AC50 under setting [1] was 0.651 µM [rising, full curve, poor fit].

Regarding `CC1CCN(C(=O)C(C)NCc2ccc(F)cc2)CC1` (stereo not drawn), the cell number change worked out at 23.2%.

On to `CCOC(=O)c1sc(=S)n(Cc2ccccc2)c1C`, for which the cell number change came to 25.6%. The AC50 under setting [1] is 0.82 µM [rising, full curve].

With `Cc1ccc(-n2ncc(C(=O)Nc3cc(Cl)ccc3Cl)c2C2CCNCC2)cc1`, the cell number change is 16%. Besides, the AC50 under setting [2] is 0.184 µM [falling, full curve, poor fit]. Besides, the AC50 under setting [1] is 0.116 µM [falling, full curve, poor fit].

As for `O=C(CN1CCC(C(=O)O)CC1)Nc1ccccc1Oc1ccccc1`, the cell number change is -49.1%. Under setting [2], the AC50 is 4.11 µM [falling, single point]. The AC50 under setting [1] was 5.17 µM [falling, single point].

Turning to `COc1ccc(NC(=O)CSc2nnc(-c3ccncc3)n2CC2CCCO2)c(OC)c1` (stereo not drawn), the cell number change is 111%. The half-maximal activity concentration (AC50) under setting [2] is 10.3 µM [rising, partial curve]. For the same compound, the AC50 under setting [1] is 8.2 µM [rising, partial curve].

In the case of `CCN1CCN(C(=O)c2ccc(S(=O)(=O)Nc3ccccc3)cc2)CC1`, the cell number change turned out to be 8.02%. Further, the AC50 under setting [2] is 0.00461 µM [falling, full curve, poor fit].

For `CC1CCC(NC(=O)C(C)N2C(=O)C3CCCCC3C2=O)CC1` (stereo not drawn), the cell number change is -16.1%. Besides, the concentration at half-maximal activity (AC50) under setting [1] was 0.58 µM [falling, single point].

In the case of `N#CC(c1cccc(Cl)c1)c1ccc2c(C(F)(F)F)cc(C(F)(F)F)nc2n1` (stereo not drawn), the cell number change is -183%. The AC50 under setting [2] is 11.6 µM [falling, partial curve]. Besides, under setting [1], the AC50 is 5.8 µM [falling, full curve].

As for `CCC(=O)Nc1ccc(C(=O)n2ccc(C)n2)cc1`, the cell number change came to 33.9%. Moreover, under setting [2], the AC50 was 11.6 µM [rising, single point].

As for `N/C(=N\OC(=O)COc1ccc(Br)cc1Cl)c1cccnc1`, the cell number change turned out to be 0.57%. Further, the half-maximal activity concentration (AC50) under setting [1] is 2.59 µM [rising, full curve, poor fit].

Regarding `CCCC12CN3CC(CCC)(CN(C1)C3C(O)C(O)C(O)CO)C2=O` (stereo not drawn), the cell number change came to 151%. For the same compound, the AC50 under setting [2] was 29.1 µM [rising, single point]. Besides, the AC50 under setting [1] was 6.51 µM [falling, single point].

For `Cc1c(NC(=S)N2CCN(c3cccc(Cl)c3)CC2)c(=O)n(-c2ccccc2)n1C`, the cell number change was -6.05%.

As to `Cc1ccc(NC(=S)Nc2ccc(OC(F)F)c(Cl)c2)cc1Cl`, the cell number change is -54.1%. For the same compound, under setting [2], the AC50 was 29.1 µM [falling, single point]. The AC50 under setting [1] is 14.6 µM [falling, partial curve, poor fit].

For `COc1ccc(C(=O)CSc2nnc(-c3cc4ccccc4cc3O)n2Cc2ccco2)cc1`, under setting [1], the AC50 was 10.3 µM [falling, partial curve, poor fit].

Regarding `Cc1ccccc1-c1nc2c(s1)CCc1onc(-c3cccc([N+](=O)[O-])c3)c1-2`, the cell number change is -15.2%. For the same compound, the AC50 under setting [1] was 0.82 µM [rising, single point].

`N#CC1=C(N)Oc2cc(N)ccc2C1C1CCCCC1` (stereo not drawn): the cell number change is -29.1%. Besides, the AC50 under setting [1] was 29.1 µM [falling, partial curve, poor fit].

Take `O=C(NCCc1c[nH]c2ccccc12)c1cc([N+](=O)[O-])cc([N+](=O)[O-])c1`: the cell number change was -37.3%. Moreover, the AC50 under setting [2] is 9.2 µM [falling, partial curve]. For the same compound, under setting [1], the AC50 is 29.1 µM [falling, single point].
